The other results are listed elsewhere or left out.
What was measured:
Test in all cases: log2 fold change, soluble protein after heating vs DMSO (PISA); higher = thermal stabilisation; K562 cells, 10 uM, 30 min; active = over 0.2 and 3.5 SD of the protein, either way, in both replicates (recomputed)
[1] = compound: CC1=C(C=C(C=C1)NC(=O)C2=CC(=CC=C2)C(C)(C)C#N)NC3=CC4=C(C=C3)N=CN(C4=O)C
Outline: (§1)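 Soluble protein was quantified by TMTpro 16plex LC-MS/MS after channel sums were equalised. It was obtained as the supernatant after 21,000xg for 90 min from pooled aliquots of K562 cells (2×10^6 cells/mL, 10 μM compound, 30 min) heated for 3 min across 48°C-58°C and extracted in PBS with 0.5% NP-40 at 4°C. Thermal stability values are relative to control samples and come from duplicates. They are given as log2 fold changes.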

Protein sequences, listed by entry. Tags and fused reporters are not part of them. Lines headed by an entry give the natural chain unless they say otherwise; changes in a name come on top.
UniProt Q9Y3A5: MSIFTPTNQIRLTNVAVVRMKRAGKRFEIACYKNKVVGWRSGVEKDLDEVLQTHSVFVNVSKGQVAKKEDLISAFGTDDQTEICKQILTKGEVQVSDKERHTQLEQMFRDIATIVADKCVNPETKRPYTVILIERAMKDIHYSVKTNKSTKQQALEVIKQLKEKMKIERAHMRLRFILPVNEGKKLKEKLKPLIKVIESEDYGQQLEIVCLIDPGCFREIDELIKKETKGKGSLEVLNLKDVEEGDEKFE
UniProt Q9H7N4: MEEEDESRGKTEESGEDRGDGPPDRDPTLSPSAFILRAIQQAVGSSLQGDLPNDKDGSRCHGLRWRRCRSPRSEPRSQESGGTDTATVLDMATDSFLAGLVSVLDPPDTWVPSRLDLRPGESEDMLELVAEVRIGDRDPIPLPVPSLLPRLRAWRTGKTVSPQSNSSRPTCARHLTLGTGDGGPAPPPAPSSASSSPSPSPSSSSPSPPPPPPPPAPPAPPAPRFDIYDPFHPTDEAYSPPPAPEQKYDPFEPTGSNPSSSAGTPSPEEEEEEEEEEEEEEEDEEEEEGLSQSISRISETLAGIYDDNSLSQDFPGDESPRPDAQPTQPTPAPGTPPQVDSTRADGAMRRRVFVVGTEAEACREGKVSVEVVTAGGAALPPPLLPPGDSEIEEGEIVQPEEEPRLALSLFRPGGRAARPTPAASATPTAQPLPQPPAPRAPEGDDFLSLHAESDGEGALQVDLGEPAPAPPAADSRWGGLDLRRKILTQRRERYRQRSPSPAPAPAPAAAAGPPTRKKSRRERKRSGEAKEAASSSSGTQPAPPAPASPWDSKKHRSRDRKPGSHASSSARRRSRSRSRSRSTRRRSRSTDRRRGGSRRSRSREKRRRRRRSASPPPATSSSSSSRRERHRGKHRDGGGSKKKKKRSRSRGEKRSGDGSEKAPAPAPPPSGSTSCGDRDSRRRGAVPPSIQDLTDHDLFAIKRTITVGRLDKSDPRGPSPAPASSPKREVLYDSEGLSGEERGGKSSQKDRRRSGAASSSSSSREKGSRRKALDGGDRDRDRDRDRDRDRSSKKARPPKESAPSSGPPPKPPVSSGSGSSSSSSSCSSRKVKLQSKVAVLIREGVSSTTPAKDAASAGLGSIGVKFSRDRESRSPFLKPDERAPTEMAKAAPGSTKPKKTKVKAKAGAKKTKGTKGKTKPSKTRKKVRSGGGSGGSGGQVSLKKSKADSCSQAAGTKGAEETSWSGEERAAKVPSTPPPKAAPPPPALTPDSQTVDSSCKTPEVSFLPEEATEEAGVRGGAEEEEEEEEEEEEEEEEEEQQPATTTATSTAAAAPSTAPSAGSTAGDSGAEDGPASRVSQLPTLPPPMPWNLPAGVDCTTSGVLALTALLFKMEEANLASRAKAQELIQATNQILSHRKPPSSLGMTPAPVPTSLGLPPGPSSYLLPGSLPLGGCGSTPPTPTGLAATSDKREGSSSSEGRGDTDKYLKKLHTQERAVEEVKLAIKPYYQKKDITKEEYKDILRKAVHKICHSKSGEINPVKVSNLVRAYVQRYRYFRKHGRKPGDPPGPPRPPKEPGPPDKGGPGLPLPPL
UniProt P82979: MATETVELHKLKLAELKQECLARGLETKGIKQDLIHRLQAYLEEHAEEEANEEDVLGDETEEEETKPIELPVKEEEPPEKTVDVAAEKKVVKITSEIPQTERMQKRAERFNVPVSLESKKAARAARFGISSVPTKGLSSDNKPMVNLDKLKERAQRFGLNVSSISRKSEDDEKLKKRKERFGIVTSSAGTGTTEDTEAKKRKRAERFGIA
UniProt P31040: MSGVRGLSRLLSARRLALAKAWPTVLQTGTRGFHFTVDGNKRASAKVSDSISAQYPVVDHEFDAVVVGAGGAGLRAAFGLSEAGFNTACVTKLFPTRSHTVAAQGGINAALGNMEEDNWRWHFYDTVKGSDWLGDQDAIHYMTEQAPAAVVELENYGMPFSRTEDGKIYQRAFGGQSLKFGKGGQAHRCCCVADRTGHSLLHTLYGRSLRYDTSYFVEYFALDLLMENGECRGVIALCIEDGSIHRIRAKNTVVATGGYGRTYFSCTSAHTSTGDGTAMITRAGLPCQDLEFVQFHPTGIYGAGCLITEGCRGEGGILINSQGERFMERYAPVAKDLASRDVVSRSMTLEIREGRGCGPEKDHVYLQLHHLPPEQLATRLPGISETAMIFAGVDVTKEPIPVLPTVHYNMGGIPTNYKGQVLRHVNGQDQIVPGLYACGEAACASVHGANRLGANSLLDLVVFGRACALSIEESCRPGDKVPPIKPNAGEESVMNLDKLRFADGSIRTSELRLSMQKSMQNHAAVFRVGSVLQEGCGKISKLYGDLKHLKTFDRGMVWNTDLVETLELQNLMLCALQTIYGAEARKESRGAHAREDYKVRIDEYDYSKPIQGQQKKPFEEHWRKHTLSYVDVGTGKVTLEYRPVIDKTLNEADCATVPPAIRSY
UniProt Q96KG9: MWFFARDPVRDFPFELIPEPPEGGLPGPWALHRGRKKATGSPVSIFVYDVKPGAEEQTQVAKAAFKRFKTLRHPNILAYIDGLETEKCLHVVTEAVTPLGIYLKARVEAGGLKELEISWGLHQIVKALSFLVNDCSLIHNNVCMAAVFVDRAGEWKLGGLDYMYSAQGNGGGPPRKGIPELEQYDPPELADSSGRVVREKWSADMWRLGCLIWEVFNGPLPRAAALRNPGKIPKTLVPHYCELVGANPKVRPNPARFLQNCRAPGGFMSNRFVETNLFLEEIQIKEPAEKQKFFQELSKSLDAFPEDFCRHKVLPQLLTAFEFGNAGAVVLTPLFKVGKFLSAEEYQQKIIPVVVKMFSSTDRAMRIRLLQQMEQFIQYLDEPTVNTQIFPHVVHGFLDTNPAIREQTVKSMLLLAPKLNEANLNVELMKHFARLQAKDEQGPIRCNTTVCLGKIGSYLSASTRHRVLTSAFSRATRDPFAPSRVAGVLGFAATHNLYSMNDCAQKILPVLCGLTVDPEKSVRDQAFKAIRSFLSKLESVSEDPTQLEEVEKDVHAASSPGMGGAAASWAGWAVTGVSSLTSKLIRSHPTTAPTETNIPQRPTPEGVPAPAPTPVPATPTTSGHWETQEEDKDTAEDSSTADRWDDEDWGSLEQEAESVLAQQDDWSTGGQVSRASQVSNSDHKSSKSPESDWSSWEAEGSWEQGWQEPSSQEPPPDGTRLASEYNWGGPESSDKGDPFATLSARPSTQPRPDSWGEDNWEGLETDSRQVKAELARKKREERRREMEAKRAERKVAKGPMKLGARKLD
UniProt Q6P3W7: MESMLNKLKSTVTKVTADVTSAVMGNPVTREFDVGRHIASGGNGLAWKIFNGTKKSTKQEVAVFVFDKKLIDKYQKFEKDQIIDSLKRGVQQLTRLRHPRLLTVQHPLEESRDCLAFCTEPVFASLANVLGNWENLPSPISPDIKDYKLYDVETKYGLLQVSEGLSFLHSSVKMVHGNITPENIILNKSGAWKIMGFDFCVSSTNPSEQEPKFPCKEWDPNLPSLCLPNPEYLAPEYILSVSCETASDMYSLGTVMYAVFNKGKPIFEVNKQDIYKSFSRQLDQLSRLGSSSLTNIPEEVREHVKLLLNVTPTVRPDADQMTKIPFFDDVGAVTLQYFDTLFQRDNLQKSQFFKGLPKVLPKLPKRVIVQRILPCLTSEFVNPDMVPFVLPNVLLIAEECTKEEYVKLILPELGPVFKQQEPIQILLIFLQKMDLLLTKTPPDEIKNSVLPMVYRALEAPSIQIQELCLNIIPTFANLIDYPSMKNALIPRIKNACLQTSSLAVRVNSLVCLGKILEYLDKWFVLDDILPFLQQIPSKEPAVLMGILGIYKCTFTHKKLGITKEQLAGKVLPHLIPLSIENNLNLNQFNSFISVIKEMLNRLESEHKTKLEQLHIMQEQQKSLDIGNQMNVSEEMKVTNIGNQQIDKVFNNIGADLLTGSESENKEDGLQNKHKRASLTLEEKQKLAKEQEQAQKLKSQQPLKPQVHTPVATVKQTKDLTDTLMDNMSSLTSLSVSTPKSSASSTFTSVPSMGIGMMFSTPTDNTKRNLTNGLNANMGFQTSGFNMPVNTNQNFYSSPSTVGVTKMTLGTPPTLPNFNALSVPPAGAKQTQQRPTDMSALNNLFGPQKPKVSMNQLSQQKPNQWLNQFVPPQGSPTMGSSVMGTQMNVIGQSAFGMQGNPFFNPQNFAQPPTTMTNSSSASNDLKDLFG
UniProt O00422: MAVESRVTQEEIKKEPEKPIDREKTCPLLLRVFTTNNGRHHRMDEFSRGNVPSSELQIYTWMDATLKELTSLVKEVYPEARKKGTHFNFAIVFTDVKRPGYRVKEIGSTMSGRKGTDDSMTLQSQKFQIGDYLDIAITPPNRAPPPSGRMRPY
UniProt Q9Y224: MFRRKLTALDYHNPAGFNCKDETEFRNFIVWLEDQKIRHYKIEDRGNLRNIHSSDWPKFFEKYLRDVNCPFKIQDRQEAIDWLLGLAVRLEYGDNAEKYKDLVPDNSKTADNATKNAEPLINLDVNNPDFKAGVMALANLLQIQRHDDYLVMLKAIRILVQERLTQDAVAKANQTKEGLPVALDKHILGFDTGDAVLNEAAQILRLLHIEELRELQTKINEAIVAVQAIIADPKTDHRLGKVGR
UniProt Q9HCN8: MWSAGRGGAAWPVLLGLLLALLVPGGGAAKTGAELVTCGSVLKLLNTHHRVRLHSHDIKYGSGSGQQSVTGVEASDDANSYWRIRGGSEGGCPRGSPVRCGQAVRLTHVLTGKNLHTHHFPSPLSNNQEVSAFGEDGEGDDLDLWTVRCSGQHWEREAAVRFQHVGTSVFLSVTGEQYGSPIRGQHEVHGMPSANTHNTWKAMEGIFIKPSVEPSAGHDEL
UniProt Q15437: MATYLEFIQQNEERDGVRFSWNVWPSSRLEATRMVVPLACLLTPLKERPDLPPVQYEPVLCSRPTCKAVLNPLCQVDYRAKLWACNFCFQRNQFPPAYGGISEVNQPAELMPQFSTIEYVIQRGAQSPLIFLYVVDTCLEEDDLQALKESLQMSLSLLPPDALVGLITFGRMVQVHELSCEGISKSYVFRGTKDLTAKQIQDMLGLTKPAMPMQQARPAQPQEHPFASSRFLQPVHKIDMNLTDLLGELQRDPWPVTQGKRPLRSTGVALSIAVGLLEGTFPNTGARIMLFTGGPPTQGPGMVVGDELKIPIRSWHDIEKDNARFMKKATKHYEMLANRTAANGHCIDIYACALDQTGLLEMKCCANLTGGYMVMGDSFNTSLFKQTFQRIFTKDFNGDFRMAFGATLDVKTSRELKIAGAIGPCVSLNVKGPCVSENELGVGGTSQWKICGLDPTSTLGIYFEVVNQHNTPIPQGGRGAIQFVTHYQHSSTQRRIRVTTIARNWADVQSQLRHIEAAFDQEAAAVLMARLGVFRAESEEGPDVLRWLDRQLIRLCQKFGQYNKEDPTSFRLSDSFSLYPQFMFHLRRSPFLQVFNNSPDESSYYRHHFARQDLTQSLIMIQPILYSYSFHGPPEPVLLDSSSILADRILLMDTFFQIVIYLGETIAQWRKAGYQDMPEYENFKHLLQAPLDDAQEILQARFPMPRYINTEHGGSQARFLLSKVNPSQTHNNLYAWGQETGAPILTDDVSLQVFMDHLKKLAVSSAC
UniProt Q9Y3B9: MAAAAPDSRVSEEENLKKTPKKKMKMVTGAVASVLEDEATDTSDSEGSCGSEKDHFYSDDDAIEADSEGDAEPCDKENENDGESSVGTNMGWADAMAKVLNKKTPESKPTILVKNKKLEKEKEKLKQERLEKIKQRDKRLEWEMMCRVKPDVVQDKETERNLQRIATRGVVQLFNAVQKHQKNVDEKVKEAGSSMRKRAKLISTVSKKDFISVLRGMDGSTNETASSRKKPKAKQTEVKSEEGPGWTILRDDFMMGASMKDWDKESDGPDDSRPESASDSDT
UniProt Q9NR31: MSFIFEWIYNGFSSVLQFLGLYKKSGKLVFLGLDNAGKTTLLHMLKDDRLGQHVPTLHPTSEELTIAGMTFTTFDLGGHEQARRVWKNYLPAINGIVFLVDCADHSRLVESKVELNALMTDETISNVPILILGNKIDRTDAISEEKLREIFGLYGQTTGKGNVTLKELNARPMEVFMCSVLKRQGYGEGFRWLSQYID
UniProt Q9BRK5: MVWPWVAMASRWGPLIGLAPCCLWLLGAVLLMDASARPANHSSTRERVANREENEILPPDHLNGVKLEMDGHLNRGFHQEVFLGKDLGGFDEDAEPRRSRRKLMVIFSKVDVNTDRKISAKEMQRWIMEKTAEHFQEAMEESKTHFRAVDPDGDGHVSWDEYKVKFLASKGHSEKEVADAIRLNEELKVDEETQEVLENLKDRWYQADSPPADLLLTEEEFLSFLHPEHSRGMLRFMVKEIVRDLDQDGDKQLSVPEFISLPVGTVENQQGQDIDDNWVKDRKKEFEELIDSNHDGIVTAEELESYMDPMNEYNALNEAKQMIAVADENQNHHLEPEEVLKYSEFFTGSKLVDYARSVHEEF

[2] = compound: CC1=C(C=C(C=C1)NC(=O)C2=CC(=CC=C2)N(C)C)NC(=O)C3=CC=C(C=C3)O
Outline: as §1

[3] = compound: CC1=CC=C(C=C1)SC2=C3C=C(SC3=CN=C2)C(=O)N
Outline: as §1

[4] = compound: CC1=NC(=CC=C1)C2=C(N=C(N2)C(C)(C)C)C3=CC4=NC=CN=C4C=C3
Outline: as §1

[5] = compound: CCCCN(Cc1ccc(C(=O)NO)cc1)C(=O)Nc1ccccc1 [Nexturastat A]
Outline: as §1

[6] = compound: CCCS(=O)(=O)Nc1ccc(F)c(C(=O)c2c[nH]c3ncc(-c4ccc(Cl)cc4)cc23)c1F [vemurafenib]
Outline: as §1

[7] = compound: CCCS(=O)(=O)Nc1ccc(F)c(C(=O)c2c[nH]c3ncc(Cl)cc23)c1F
Outline: as §1

[8] = compound: CCCc1cc(C)[nH]c(=O)c1CNC(=O)c1cc(-c2ccnc(N3CCN(C)CC3)c2)cc2c1cnn2C(C)C
Outline: as §1

[9] = compound: CCN(CC)Cc1ccc2cc(COC(=O)Nc3ccc(C(=O)NO)cc3)ccc2c1 [givinostat]
Outline: as §1

[10] = compound: CCN(CCCOc1ccc2c(Nc3cc(CC(=O)Nc4cccc(F)c4)[nH]n3)ncnc2c1)CCOP(=O)(O)O [barasertib]
Outline: as §1

[11] = compound: CC[C@@H]1C(=O)N(C)c2cnc(Nc3ccc(C(=O)NC4CCN(C)CC4)cc3OC)nc2N1C1CCCC1
Outline: as §1

[12] = compound: CC[C@@H]1C(=O)N(C)c2cnc(Nc3ccc(C(=O)N[C@H]4CC[C@H](N5CCN(CC6CC6)CC5)CC4)cc3OC)nc2N1C(C)C [volasertib]
Outline: as §1

[13] = compound: CC[C@H](C)N1C=C(C2=C(C=C(C=C21)C3=CN=C(C=C3)N4CCNCC4)C(=O)NCC5=C(C=C(NC5=O)C)C)C
Outline: as §1

[14] = compound: CC[C@H](C)[C@@H](C(=O)N[C@@H]([C@@H](C)O)C(=O)N[C@@H](CC(C)C)C(=O)[C@]1(CO1)C)NC(=O)[C@H]([C@@H](C)CC)N(C)C(=O)C [epoxomicin]
Outline: as §1

[15] = compound: CCn1c(C(=O)N(C2CC2)C2CC2)cc2c3c(ncn3C)c(Nc3cc(C)n(C)n3)nc21
Outline: as §1

[16] = compound: CCn1cc(-c2ccnc3[nH]c(-c4cccc(CN(C)C)c4)cc23)c(-c2ccc(NC(=O)N(C)C)cc2)n1
Outline: as §1

[17] = compound: CN(C)CC(=O)Nc1ccc2[nH]c(=O)c3ccccc3c2c1
Outline: as §1

[18] = compound: CN(CCOC1=CC=C(C=C1)C[C@H]2C(=O)NC(=O)S2)C3=CC=CC=N3 (racemic) [rosiglitazone]
Outline: as §1

[19] = compound: CN1C2=C(C3=C1C(=O)N(N=C3)CC4=CC(=CC=C4)N)SC(=C2)S(=O)C
Outline: as §1

[20] = compound: CN1CCC(CNc2ccc3ncc(-c4cccc(OC(F)(F)F)c4)n3n2)CC1
Outline: as §1

Measured: log2 fold change

SCP2 (UniProt P22307)
inactive: [1] -0.027 | [2] 0.005 | [3] -0.006 | [4] 0.028 | [5] -0.104 | [6] 0.022 | [7] 0.012 | [8] -0.027 | [9] -0.009 | [10] -0.005 | [11] 0.079 | [12] -0.043 | [13] -0.011 | [14] 0.006 | [15] 0.002 | [16] -0.012 | [17] 0.023 | [18] 0 | [19] -0.057 | [20] 0.042

SBDS (UniProt Q9Y3A5)
inactive: [1] 0.006 | [2] -0.075 | [3] 0.031 | [4] 0.042 | [5] 0.012 | [6] 0.014 | [7] 0.063 | [8] 0.044 | [9] 0.046 | [10] 0.083 | [11] -0.053 | [12] -0.079 | [13] 0.059 | [14] 0.015 | [15] -0.044 | [16] -0.074 | [17] 0.045 | [18] 0.108 | [19] -0.055 | [20] -0.138

SCAF1 (UniProt Q9H7N4)
inactive: [1] 0.004

SARNP (UniProt P82979)
inactive: [1] -0.039 | [2] 0.007 | [3] -0.071 | [4] -0.065 | [5] 0.019 | [6] -0.077 | [7] -0.121 | [8] -0.06 | [9] -0.04 | [10] -0.056 | [11] 0.039 | [12] 0.181 | [13] -0.109 | [14] -0.038 | [15] 0.034 | [16] 0.037 | [17] -0.088 | [18] -0.068 | [19] 0.001 | [20] -0.008

SDHA (UniProt P31040)
inactive: [1] 0.034 | [2] 0.031 | [3] 0.01 | [4] 0.054 | [5] -0.072 | [6] 0.008 | [7] 0.011 | [8] 0.029 | [9] -0.019 | [10] -0.052 | [11] -0.028 | [12] 0.071 | [13] -0.039 | [14] 0.008 | [15] -0.003 | [16] -0.029 | [17] 0 | [18] 0.005 | [19] -0.031 | [20] 0.016

SEC24D isoform 2 (UniProt O94855)
inactive: [1] 0.076 | [2] -0.032 | [3] 0.023 | [4] -0.024 | [5] -0.088 | [6] 0.024 | [7] 0.032 | [8] -0.036 | [9] -0.036 | [10] 0.032 | [11] 0 | [12] -0.094 | [13] 0.024 | [14] 0.108 | [15] -0.047 | [16] -0.125 | [17] 0.036 | [18] 0.032 | [19] -0.006 | [20] 0.129

SCYL1 (UniProt Q96KG9)
inactive: [1] -0.002 | [2] -0.029 | [3] 0.012 | [4] 0.051 | [5] -0.08 | [6] 0.015 | [7] 0.022 | [8] 0.04 | [9] -0.045 | [10] 0.031 | [11] -0.079 | [12] -0.178 | [13] 0.028 | [14] 0.032 | [15] -0.022 | [16] -0.058 | [17] -0.01 | [18] 0.034 | [19] -0.01 | [20] -0.001

SCYL2 (UniProt Q6P3W7)
inactive: [1] -0.039 | [2] -0.029 | [3] -0.004 | [4] 0.029 | [5] -0.031 | [6] 0.023 | [7] 0.031 | [8] -0.047 | [9] 0.053 | [10] 0.013 | [11] -0.021 | [12] -0.222 | [13] 0.025 | [14] 0.026 | [15] -0.02 | [16] -0.022 | [17] 0.005 | [18] 0.026 | [19] -0.004 | [20] -0.011

SAP18 isoform 2 (UniProt O00422)
inactive: [1] 0.2 | [2] 0.074 | [3] -0.105 | [4] -0.038 | [5] 0.269 | [6] -0.032 | [7] -0.02 | [8] 0.04 | [9] -0.029 | [10] -0.056 | [11] 0.078 | [12] 0.056 | [13] -0.021 | [14] -0.133 | [15] 0.039 | [16] 0.08 | [17] -0.14 | [18] -0.081 | [19] 0.179 | [20] 0.144

Quoted from the entries so far (four entries):
SARNP (UniProt P82979)
inactive: [1] -0.039 | [2] 0.007 | [3] -0.071 | [4] -0.065 | [5] 0.019 | [6] -0.077 | [7] -0.121 | [8] -0.06 | [9] -0.04 | [10] -0.056 | [11] 0.039 | [12] 0.181 | [13] -0.109 | [14] -0.038 | [15] 0.034 | [16] 0.037 | [17] -0.088 | [18] -0.068 | [19] 0.001 | [20] -0.008

SDHA (UniProt P31040)
inactive: [1] 0.034 | [2] 0.031 | [3] 0.01 | [4] 0.054 | [5] -0.072 | [6] 0.008 | [7] 0.011 | [8] 0.029 | [9] -0.019 | [10] -0.052 | [11] -0.028 | [12] 0.071 | [13] -0.039 | [14] 0.008 | [15] -0.003 | [16] -0.029 | [17] 0 | [18] 0.005 | [19] -0.031 | [20] 0.016

SEC24D isoform 2 (UniProt O94855)
inactive: [1] 0.076 | [2] -0.032 | [3] 0.023 | [4] -0.024 | [5] -0.088 | [6] 0.024 | [7] 0.032 | [8] -0.036 | [9] -0.036 | [10] 0.032 | [11] 0 | [12] -0.094 | [13] 0.024 | [14] 0.108 | [15] -0.047 | [16] -0.125 | [17] 0.036 | [18] 0.032 | [19] -0.006 | [20] 0.129

SCYL1 (UniProt Q96KG9)
inactive: [1] -0.002 | [2] -0.029 | [3] 0.012 | [4] 0.051 | [5] -0.08 | [6] 0.015 | [7] 0.022 | [8] 0.04 | [9] -0.045 | [10] 0.031 | [11] -0.079 | [12] -0.178 | [13] 0.028 | [14] 0.032 | [15] -0.022 | [16] -0.058 | [17] -0.01 | [18] 0.034 | [19] -0.01 | [20] -0.001

Further records

RUVBL2 (UniProt Q9Y230)
inactive: [1] 0.04 | [2] 0.024 | [3] -0.009 | [4] -0.013 | [5] -0.044 | [6] 0.033 | [7] -0.021 | [8] -0.007 | [9] -0.016 | [10] -0.021 | [11] 0.1 | [12] 0.173 | [13] -0.032 | [14] 0.01 | [15] 0.025 | [16] -0.043 | [17] 0.013 | [18] -0.035 | [19] -0.032 | [20] 0.172

RTRAF (UniProt Q9Y224)
inactive: [1] -0.012 | [2] -0.016 | [3] -0.038 | [4] -0.058 | [5] 0.088 | [6] -0.074 | [7] -0.025 | [8] 0.03 | [9] 0.009 | [10] -0.009 | [11] 0.113 | [12] 0.056 | [13] -0.008 | [14] -0.049 | [15] -0.039 | [16] 0.029 | [17] -0.05 | [18] -0.031 | [19] 0.075 | [20] 0.028

SDF2L1 (UniProt Q9HCN8)
inactive: [1] 0.013 | [2] 0.022 | [3] -0.03 | [4] -0.014 | [5] 0.042 | [6] 0.006 | [7] -0.035 | [8] -0.082 | [9] 0.004 | [10] -0.01 | [11] 0.008 | [12] 0.06 | [13] -0.01 | [14] -0.033 | [15] -0.025 | [16] -0.018 | [17] -0.018 | [18] 0.01 | [19] -0.004 | [20] 0.037

SEC23B (UniProt Q15437)
inactive: [1] 0.003 | [2] -0.028 | [3] 0.008 | [4] 0.04 | [5] 0.006 | [6] 0.033 | [7] 0.033 | [8] 0.005 | [9] 0.005 | [10] 0.017 | [11] -0.005 | [12] -0.168 | [13] 0.031 | [14] 0.025 | [15] -0.025 | [16] -0.006 | [17] 0.026 | [18] 0.024 | [19] -0.031 | [20] -0.014

SAMM50 (UniProt Q9Y512)
inactive: [1] -0.019 | [2] 0.016 | [3] -0.009 | [4] 0.013 | [5] -0.055 | [6] -0.012 | [7] -0.041 | [8] 0.011 | [9] -0.029 | [10] 0.002 | [11] 0.007 | [12] 0.033 | [13] -0.004 | [14] 0.007 | [15] 0.053 | [16] -0.019 | [17] -0.021 | [18] -0.013 | [19] -0.025 | [20] -0.047

RRP15 (UniProt Q9Y3B9)
inactive: [1] -0.029 | [2] -0.001 | [3] -0.03 | [4] -0.014 | [5] -0.026 | [6] -0.028 | [7] -0.018 | [8] -0.015 | [9] -0.012 | [10] -0.056 | [11] 0.014 | [12] 0.046 | [13] -0.069 | [14] -0.057 | [15] 0.044 | [16] 0.005 | [17] -0.012 | [18] -0.068 | [19] 0.002 | [20] 0.049

SAR1A (UniProt Q9NR31)
inactive: [1] 0.047 | [2] -0.029 | [3] -0.002 | [4] 0.096 | [5] -0.018 | [6] 0.036 | [7] 0.009 | [8] 0 | [9] 0.006 | [10] 0.076 | [11] 0.03 | [12] 0.169 | [13] -0.011 | [14] 0.118 | [15] -0.019 | [16] -0.024 | [17] 0.047 | [18] 0.008 | [19] -0.04 | [20] 0.12

SDF4 (UniProt Q9BRK5)
inactive: [1] -0.047 | [2] -0.005 | [3] 0.04 | [4] -0.003 | [5] -0.041 | [6] 0.024 | [7] -0.032 | [8] 0.031 | [9] 0.015 | [10] 0.009 | [11] -0.007 | [12] -0.151 | [13] 0.008 | [14] 0.017 | [15] 0.008 | [16] 0.025 | [17] 0.01 | [18] -0.003 | [19] -0.014 | [20] 0.166

— the supplement of paper PMC10849652
